# Source: PubChem BioAssay AID651768 (National Center for Advancing Translational Sciences (NCATS), 2012)
# Amino acid sequences for entries named in this document (tags omitted).
# UniProt Q14191, whole entry, looked up: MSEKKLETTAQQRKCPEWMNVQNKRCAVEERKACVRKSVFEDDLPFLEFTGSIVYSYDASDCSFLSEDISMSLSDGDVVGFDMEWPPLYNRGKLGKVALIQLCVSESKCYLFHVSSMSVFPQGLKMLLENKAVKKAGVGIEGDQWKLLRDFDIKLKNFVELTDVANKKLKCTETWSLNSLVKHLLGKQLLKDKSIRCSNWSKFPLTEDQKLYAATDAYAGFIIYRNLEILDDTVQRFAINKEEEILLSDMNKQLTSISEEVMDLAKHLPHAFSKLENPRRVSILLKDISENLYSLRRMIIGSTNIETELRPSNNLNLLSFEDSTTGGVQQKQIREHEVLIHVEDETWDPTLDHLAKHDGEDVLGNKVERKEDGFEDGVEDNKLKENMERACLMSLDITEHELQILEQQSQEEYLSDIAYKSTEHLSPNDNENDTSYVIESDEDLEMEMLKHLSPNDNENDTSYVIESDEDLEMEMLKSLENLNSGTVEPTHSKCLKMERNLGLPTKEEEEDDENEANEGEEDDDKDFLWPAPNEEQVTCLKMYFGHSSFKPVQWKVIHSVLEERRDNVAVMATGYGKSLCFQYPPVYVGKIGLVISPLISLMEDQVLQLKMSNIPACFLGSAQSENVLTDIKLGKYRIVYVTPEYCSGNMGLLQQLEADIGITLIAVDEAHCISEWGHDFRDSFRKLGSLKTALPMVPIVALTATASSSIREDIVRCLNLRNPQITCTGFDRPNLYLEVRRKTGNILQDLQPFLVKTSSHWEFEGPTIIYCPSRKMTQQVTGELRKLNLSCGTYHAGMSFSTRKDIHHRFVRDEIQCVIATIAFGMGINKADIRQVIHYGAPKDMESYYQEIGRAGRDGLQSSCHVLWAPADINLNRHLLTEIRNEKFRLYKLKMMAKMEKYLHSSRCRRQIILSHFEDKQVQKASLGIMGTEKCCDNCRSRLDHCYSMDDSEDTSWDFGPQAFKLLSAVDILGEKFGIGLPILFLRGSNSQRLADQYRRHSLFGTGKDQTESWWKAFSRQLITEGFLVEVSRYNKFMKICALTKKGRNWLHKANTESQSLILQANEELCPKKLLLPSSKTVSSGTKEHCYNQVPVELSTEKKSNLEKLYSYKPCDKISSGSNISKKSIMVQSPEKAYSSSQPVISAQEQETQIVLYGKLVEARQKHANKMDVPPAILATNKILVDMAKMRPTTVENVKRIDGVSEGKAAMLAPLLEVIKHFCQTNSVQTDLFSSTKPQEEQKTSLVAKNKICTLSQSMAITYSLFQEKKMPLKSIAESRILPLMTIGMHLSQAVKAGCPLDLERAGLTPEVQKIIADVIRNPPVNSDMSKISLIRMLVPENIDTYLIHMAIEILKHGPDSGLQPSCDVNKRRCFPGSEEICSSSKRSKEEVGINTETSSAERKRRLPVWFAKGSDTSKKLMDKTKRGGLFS
# Screen size: about 360,000 compounds; about 1,700 (0.47%) were called active. The shares of active, inactive and inconclusive entries below differ from those in the screen. Calls follow the shape of the dose curve; as a rule, active = well fitted inhibition curve with a large enough effect; inconclusive = small, poorly fitted or top-dose-only effect; inactive = no such curve, though single readings can be large or run the other way. Where the call is inconclusive, the potency comes from a doubtful curve fit.
# Molecular target: Bifunctional 3'-5' exonuclease/ATP-dependent helicase WRN (Homo sapiens) (UniProt Q14191)
# Assay: qHTS for Inhibitors of WRN Helicase; also: nearly all actives have a fitted effect of over 55% in size
# Details: WRN helicase unwinding, fluorescent forked duplex, kinetic; activity change, negative = inhibition: at 114 µM (top of the series) unless noted
# Outline: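 Kinetic red-fluorescence monitoring (525/598 nm) tracks WRN helicase activity after 100 nM fluorophore-quencher forked duplex and 2 mM ATP are added to 20 nM enzyme pretreated 15 min at room temperature with compound.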
# % is scaled to controls: 0 for no effect and ±100 for the full control effect; potency is read from the fitted curve at half-maximal effect.
Compound,Potency,"activity change, negative = inhibition"
Cc1ccc(C)c(OC(=O)CN2C(=O)c3ccccc3C2=O)c1,"inconclusive: 100 µM [inhibitor, single point]",
Cc1ccc(-c2n[nH]c(=S)n2/N=C/C=C\c2ccccc2[N+](=O)[O-])cc1,"inconclusive: 50.1 µM [inhibitor, partial curve]",
CC1(C)CC2(CCCN(C(=S)Nc3ccccc3)C2)CCO1 (stereo not given),"inconclusive: 14.1 µM [inhibitor, full curve, poor fit]",
Cc1cc(C(=O)CSc2nnc(-c3ccccc3)n2-c2ccccc2)c(C)n1-c1ncn[nH]1,"inconclusive: 50.1 µM [inhibitor, partial curve]",
NC(=O)c1c(NC(=O)CN2CCN(S(=O)(=O)c3ccccc3)CC2)sc2c1CCC2,"inconclusive: 56.2 µM [inhibitor, partial curve]",
Cc1c(Br)c(=O)oc2c(Br)c(O)c(O)cc12,active: 15.8 µM,
O=C(O)c1ccc(NS(=O)(=O)c2ccc3c(c2)C2C=CCC2C(c2ccccc2F)N3)cc1 (stereo not given),active: 35.5 µM,
O=C(CSc1cccc(C(F)(F)F)c1)NC(=O)NCc1ccco1,"inconclusive: 56.2 µM [inhibitor, partial curve]",
CCCn1cc(SCC(=O)Nc2cc(C)on2)c2ccccc21,"inconclusive: 89.1 µM [inhibitor, single point]",
COc1ccc(NC(=O)NNS(=O)(=O)c2ccc(OC)c(OC)c2)c(OC)c1,"inconclusive: 79.4 µM [inhibitor, single point]",
CC(=O)c1ccc(NC(=O)CSc2nnc(-c3ccco3)c(-c3ccco3)n2)cc1,active: 31.6 µM,
CCOc1ccc2nc3cc(NCc4ccc(OC)cc4)ccc3c(N)c2c1,active: 35.5 µM,
CCOc1cc(/C=C2\C(=N)N3N=C(S(C)(=O)=O)SC3=NC2=O)ccc1OCCOc1cccc(OC)c1,active: 56.2 µM,
CC1CNC(=S)N(c2ccc(F)cc2)C1=O (stereo not given),"inconclusive: 12.6 µM [inhibitor, partial curve]",
CCC(C)Nc1ccc(NC(C)CC)cc1 (stereo not given),inactive,
Oc1cc2c(cc1C(c1ccc(Cl)c(Cl)c1)N1CCCC1)OCO2 (stereo not given),"inconclusive: 56.2 µM [inhibitor, partial curve]",
O=C(CSc1nnc2ccccn12)NNC(=O)c1cccc(Cl)c1,"inconclusive: 28.2 µM [inhibitor, full curve, poor fit]",
O=C(O)/C(=C\c1ccc(Br)cc1)c1ccc(S(=O)(=O)N2CCCCC2)s1,inactive,
O=C(NCCN1CCOCC1)c1cc(-c2ccc(Cl)cc2Cl)on1,"inconclusive: 10 µM [inhibitor, partial curve]",
C=CCc1cccc2cc(C(=O)Nc3ccccc3C(=O)O)c(=O)oc12,"inconclusive: 50.1 µM [inhibitor, partial curve]",
Cc1ccc(-c2csc(NC(=O)COc3ccc(N(C)S(=O)(=O)c4ccc(C)cc4)cc3)n2)cc1,"inconclusive: 31.6 µM [inhibitor, single point]",
CCCCc1ccc(-c2csc(/C(C#N)=C\c3ccco3)n2)cc1,"inconclusive: 39.8 µM [inhibitor, single point]",

# Some of the entries so far, bar-delimited:
Compound | Potency | activity change, negative = inhibition
Cc1cc(C(=O)CSc2nnc(-c3ccccc3)n2-c2ccccc2)c(C)n1-c1ncn[nH]1 | inconclusive: 50.1 µM [inhibitor, partial curve] | 
NC(=O)c1c(NC(=O)CN2CCN(S(=O)(=O)c3ccccc3)CC2)sc2c1CCC2 | inconclusive: 56.2 µM [inhibitor, partial curve] | 

# Next part.

Compound,Potency,"activity change, negative = inhibition"
COC(=O)/C=C1\N/C(=N\c2nc(C)cc(C)n2)N(c2ccccc2)C1=O,"inconclusive: 39.8 µM [inhibitor, single point]",
CCN(CC)c1ccc(C=C2C(=O)OC(C)(C(C)(C)C)OC2=O)cc1 (stereo not given),"inconclusive: 56.2 µM [inhibitor, partial curve]",
O=C(CCCN1C(=O)/C(=C\c2cccs2)SC1=S)Nc1ccccc1O,inactive,
Cc1cc(Br)ccc1N=C1NC(=O)CS1,inactive,
CCN(CC)c1ccc(N=C2C(=O)Nc3ccccc32)cc1,"inconclusive: 31.6 µM [inhibitor, partial curve]",
Cc1ccc(N/N=C/c2c(C)c(C#N)c(=O)n(C)c2O)cc1C,"inconclusive: 22.4 µM [inhibitor, single point]",
COc1cc(/C=C2\SC(=S)N(C(Cc3ccccc3)C(=O)O)C2=O)ccc1O (stereo not given),active: 50.1 µM,
O=C(CSc1cccc2cccnc12)OCC(=O)c1ccccc1,inactive,
CN(C)c1ccc(NC(=O)c2cc3c(=O)n4ccccc4nc3n2C)cc1,"inconclusive: 50.1 µM [inhibitor, partial curve]",
CC1=NN(c2ccccc2)C(=O)C1/C=C1\NC(=S)NC1=O (stereo not given),active: 28.2 µM,
O=C(/C=C/c1cnc2ccccc2n1)NC1CCCCCC1,"inconclusive: 12.6 µM [inhibitor, single point]",
COc1ccc(N=C2NC(=O)S/C2=C\c2ccc(N(C)C)cc2)cc1,"inconclusive: 100 µM [inhibitor, single point]",
Cc1nc2c(OCc3cccc(Cl)c3)cccn2c1N(C)Cc1cccs1,inactive,
CCCn1c(SCc2ccon2)nc2ccccc2c1=O,inactive,
COc1cccc(NC(=O)CN(C)C(=O)c2ccccc2CCc2ccccc2)c1,"inconclusive: 79.4 µM [inhibitor, single point]",
COc1ccccc1CNC(=O)c1cc(-c2ccncc2)nc2c(Cl)cccc12,"inconclusive: 44.7 µM [inhibitor, partial curve]",
COc1ccc(C(=O)Nc2ccnn2C2CCN(CCC(C)c3ccc(C)o3)CC2)cc1 (stereo not given),"inconclusive: 50.1 µM [inhibitor, partial curve]",
CCCCNC(=O)CCn1nc(-c2ccc(Cl)cc2)c2ccccc2c1=O,"inconclusive: 3.98 µM [inhibitor, full curve, poor fit]",
O=[n+]1c2c(n([O-])c3cc(F)c(N4CCCC4)cc31)CCCC2,"inconclusive: 50.1 µM [inhibitor, partial curve]",
CCC1CCCCN1C(=O)COC(=O)c1cccs1 (stereo not given),"inconclusive: 14.1 µM [inhibitor, single point]",
COc1cc(C=O)ccc1OCCOCCOc1cc(C)ccc1Cl,,inconclusive: -47.1% [inhibitor] [at 57.1 µM]
O=C(/C=C/c1ccco1)NC(=S)Nc1ccc(O)c(-c2nc3ccccc3s2)c1,"inconclusive: 25.1 µM [inhibitor, single point]",
